Results from PMC4795683.

Molecular target: T1, Cuf2-TAP (S. pombe) (UniProt O94588)
T1 sequence: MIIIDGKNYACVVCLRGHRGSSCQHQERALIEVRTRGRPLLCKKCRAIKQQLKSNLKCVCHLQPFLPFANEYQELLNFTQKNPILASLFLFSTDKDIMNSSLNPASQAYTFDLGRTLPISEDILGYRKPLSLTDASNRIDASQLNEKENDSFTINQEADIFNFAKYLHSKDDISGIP
Assay: co-IP; TAP pull-down: whole-cell extracts (10 mg protein) of vegetative S. pombe cells, Mei4-GFP induced 18 h without thiamine, mixed with IgG Sepharose 6 Fast-Flow beads 2 h at 4°C; lysis buffer 10 mM Tris-HCl pH 7.9, 0.1% Triton X-100, 0.5 mM EDTA, 20% glycerol, 100 mM NaCl; bound proteins blotted with anti-GFP, anti-IgG and anti-α-tubulin

binding: no binding
Substance: α-tubulin (S. pombe (endogenous in S. pombe cells))

These are yes or no findings as the source states them, for the method shown. Binding seen in cells or lysates may run through a third protein.
